PubChem BioAssay AID1259308, NCATS – 2017

Aim: 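Candidate targets for better recombinant protein yield in mammalian cells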 (primary screen)
Cell system: human HEK293 embryonic kidney cells stably expressing firefly luciferase (HEK-CMV-Luc2-Hygro)
Reagent: single siRNA against human genes, 0.8 pmol siRNA per well
Duration: 72 h
Measured: 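Luciferase light (ONE-Glo) measured on one replicate plate set and viability (CellTiter-Glo) on the other, scaled to a negative control siRNA, with robust z-scores and luciferase per cell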
Reading the numbers: total luciferase, z-score and total luciferase, % of control: higher = more reporter protein produced; luciferase per cell, z-score: higher = more reporter output per viable cell; viable cells, % of control: higher = more viable cells
Hit rule: 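Active when the median/MAD z-score for overall luciferase is greater than 3; a gene was taken forward for validation with new siRNAs if at least two of its three siRNAs passed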
Meaning of the calls: active = raised luciferase; inactive = no rise
The deposit covers about 59,000 reagents; below is a part drawn at random. Of all reagents, about 1,510 (2.6%) got an active call. 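Calls use total luciferase alone and ignore viability, so some active siRNAs may act by altering cell number.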 A number with no mark means an inactive call.

gene,PubChem SID,"total luciferase, z-score","total luciferase, % of control","luciferase per cell, z-score","viable cells, % of control"
MMP23B (GeneID 8510),SID160720202,1.67,115,1.88,78.4
MMP23B (GeneID 8510),SID160720203,-0.558,70.8,-1.27,110
MMP23B (GeneID 8510),SID160724176,0.733,96.5,0.747,88.5
BTBD8 (GeneID 284697),SID160763415,-0.765,66.7,-0.286,80.3
BTBD8 (GeneID 284697),SID160763416,3 (active),142,3.12,69.5
BTBD8 (GeneID 284697),SID160763417,-1.51,51.8,-1.31,81.6
PRKCD (GeneID 5580),SID160714932,2.18,125,6.54,25
PRKCD (GeneID 5580),SID160714933,-0.481,72.3,-0.344,88.5
PRKCD (GeneID 5580),SID160714936,-0.0716,80.5,-0.157,93.7
DNAJA4 (GeneID 55466),SID160743697,-0.416,73.6,0.66,69.1
DNAJA4 (GeneID 55466),SID160743698,3.15 (active),145,2.25,89.4
DNAJA4 (GeneID 55466),SID160743699,-0.157,78.8,-0.132,91.1
TLX3 (GeneID 30012),SID160739493,-0.266,76.6,-0.118,88.3
TLX3 (GeneID 30012),SID160739494,2.1,124,1.42,95
TLX3 (GeneID 30012),SID160739497,1.42,110,1.1,92.3
GABRA2 (GeneID 2555),SID160768333,0.491,91.7,-0.0738,104
GABRA2 (GeneID 2555),SID160768344,-0.786,66.3,-0.269,79.5
GABRA2 (GeneID 2555),SID160768355,-0.782,66.3,-0.828,92.2
UBE2J2 (GeneID 118424),SID160755610,0.116,84.2,-0.534,108
UBE2J2 (GeneID 118424),SID160755612,0.137,84.6,0.148,90.9
UBE2J2 (GeneID 118424),SID160755613,-1.16,58.8,0.355,59.9
COX14 (GeneID 84987),SID160753091,-1.04,61.2,-0.782,84
COX14 (GeneID 84987),SID160753092,2.06,123,2.31,74.7
COX14 (GeneID 84987),SID160753093,-0.668,68.6,-0.599,89.8
LOC441347 (retired record) (GeneID 441347),SID160725436,1.89,119,1.38,92.7
LOC441347 (retired record) (GeneID 441347),SID160728013,0.632,94.5,0.024,105
LOC441347 (retired record) (GeneID 441347),SID160728014,0.918,100,0.318,103
ZNF735 (GeneID 730291),SID160726858,-0.0404,81.1,0.054,89.3
ZNF735 (GeneID 730291),SID160727448,-0.0536,80.8,1.06,68.3
ZNF735 (GeneID 730291),SID160727449,1.57,113,0.9,99.7
ZNF735 (GeneID 730291),SID160734431,-2.58,30.7,-3.56,87.4
ZNF735 (GeneID 730291),SID160734751,1.65,115,1.36,89.6
ZNF735 (GeneID 730291),SID160772256,0.197,85.8,0.166,91.8
FAAP20 (GeneID 199990),SID160724920,0.0692,83.3,-0.672,111
FAAP20 (GeneID 199990),SID160760781,-1.41,53.8,0.0136,60
FAAP20 (GeneID 199990),SID160760782,-1.1,60.1,-0.466,75.9
NAT1 (GeneID 9),SID160776659,-0.546,71,-1.18,108
NAT1 (GeneID 9),SID160776669,-1.52,51.7,-1.7,90.4
NAT1 (GeneID 9),SID160776678,2.95,141,1.58,104
ZNF354C (GeneID 30832),SID160739535,0.376,89.4,0.15,96
ZNF354C (GeneID 30832),SID160739536,1.23,106,1.34,83.5
ZNF354C (GeneID 30832),SID160739538,-0.0906,80.1,0.724,74
RBFA (GeneID 79863),SID160749633,1.25,107,1.76,75.1
RBFA (GeneID 79863),SID160749634,0.354,88.9,0.128,96.1
RBFA (GeneID 79863),SID160749635,0.0583,83,-0.189,97.5
PTHLH (GeneID 5744),SID160715324,0.158,85,-0.0909,97.3
PTHLH (GeneID 5744),SID160715325,5.01 (active),182,3.37,83.5
PTHLH (GeneID 5744),SID160715326,1.73,116,3.01,58.8
ABCB5 (GeneID 340273),SID160764400,0.155,85,0.102,92.4
ABCB5 (GeneID 340273),SID160764401,-0.864,64.7,-1.43,105
ABCB5 (GeneID 340273),SID160764402,1.31,108,1.01,92.4
CELF5 (GeneID 60680),SID160747173,2.43,130,2.22,81
CELF5 (GeneID 60680),SID160747174,2.3,128,1.35,99.9
CELF5 (GeneID 60680),SID160747176,-0.622,69.5,-0.856,97.3
CBLN3 (GeneID 643866),SID160769029,-0.276,76.4,-0.000251,85.4
CBLN3 (GeneID 643866),SID160769030,1.28,107,1.22,86.9
CBLN3 (GeneID 643866),SID160769031,2.64,134,1.23,109
SLC9A4 (GeneID 389015),SID160766064,1.21,106,0.846,94.7
SLC9A4 (GeneID 389015),SID160766065,-1.09,60.2,-1.73,106
SLC9A4 (GeneID 389015),SID160766067,-0.435,73.2,-0.978,106
CBARP (GeneID 255057),SID160724952,0.79,97.6,0.511,95.3
CBARP (GeneID 255057),SID160762262,0.262,87.1,0.116,94.4
CBARP (GeneID 255057),SID160762263,0.169,85.2,-0.0968,97.7
FRMD4B (GeneID 23150),SID160735567,0.169,85.2,-0.0659,96.9
FRMD4B (GeneID 23150),SID160735568,-0.905,63.9,-0.693,85.7
FRMD4B (GeneID 23150),SID160735569,-0.0779,80.3,-0.0846,91.8
UBAC1 (GeneID 10422),SID160728384,1.11,104,0.574,100
UBAC1 (GeneID 10422),SID160728385,1.47,111,1.16,91.4
UBAC1 (GeneID 10422),SID160732275,-0.276,76.4,-0.336,93.3
BIN3 (GeneID 55909),SID160744628,1.02,102,1.38,79.4
BIN3 (GeneID 55909),SID160744629,1.58,113,1.17,93
BIN3 (GeneID 55909),SID160744630,-1.41,53.8,-1.81,96.9
DPT (GeneID 1805),SID160756037,-0.744,67.1,-0.362,82.4
DPT (GeneID 1805),SID160756047,-2.43,33.6,-1.57,56.9
DPT (GeneID 1805),SID160756058,-0.0136,81.6,0.753,74.8
